Record: PubChem BioAssay AID652243 (Drosophila RNAi Screening Center, 2013)

Assay: 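Fly regulators of androgen-dependent reporter output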 (primary screen)
System: Drosophila S2R+ cells
Knock-down reagent: long dsRNA against Drosophila genes
Timing: 72 h (48 h, then 24 h hormone)
Conditions: synthetic androgen R1881 at 10 nM for 24 h
Measured: 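Firefly light from an androgen-responsive reporter and Renilla control light per well, raw and unnormalised, for each of two replicates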
Scale: firefly reporter light: higher = more light from androgen-responsive reporter; Renilla control light: higher = more constitutive control signal (cell number, transfection)
Rule for the call: 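Across duplicate plates, a knock-down whose log firefly/Renilla ratio shifted a set fold down or up from the GFP/LacZ control mean was a hit; the downward cut appears as both 1.5 and 3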
Meaning of the calls: active = hit: reporter lowered or raised; inactive = no hit
The screen tested about 24,000 reagents; shown is an unselected part of those with a known target gene and a result. In the full data, 246 (1%) were called active. 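Plates not normalised; calls are printed but the firefly/Renilla ratio behind them is not deposited; fold cut for lowering reported inconsistently.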 Raw values are not corrected between plates. Entries without a mark were called inactive. Not given: the amount of reagent.

The first 2 records as a preview:
CG43347 [DRSC23007]
- firefly reporter light, replicate 1: 7.17e5
- firefly reporter light, replicate 2: 7.07e5
- Renilla control light, replicate 1: 1.91e6
- Renilla control light, replicate 2: 2.00e6

CG43347 [DRSC23170]
- firefly reporter light, replicate 1: 6.77e5
- firefly reporter light, replicate 2: 5.78e5
- Renilla control light, replicate 1: 1.16e6
- Renilla control light, replicate 2: 8.09e5

Results, from the start:
CG43347 [DRSC23007]
- firefly reporter light, replicate 1: 7.17e5
- firefly reporter light, replicate 2: 7.07e5
- Renilla control light, replicate 1: 1.91e6
- Renilla control light, replicate 2: 2.00e6

CG43347 [DRSC23170]
- firefly reporter light, replicate 1: 6.77e5
- firefly reporter light, replicate 2: 5.78e5
- Renilla control light, replicate 1: 1.16e6
- Renilla control light, replicate 2: 8.09e5

CG43347 [DRSC25782]
- firefly reporter light, replicate 1: 1.84e5
- firefly reporter light, replicate 2: 3.29e5
- Renilla control light, replicate 1: 7.05e5
- Renilla control light, replicate 2: 5.45e5

CG43347 [DRSC29367]
- firefly reporter light, replicate 1: 1.12e6
- firefly reporter light, replicate 2: 7.12e5
- Renilla control light, replicate 1: 1.81e6
- Renilla control light, replicate 2: 1.81e6

Rbcn-3B [DRSC18574]
- firefly reporter light, replicate 1: 3.82e5
- firefly reporter light, replicate 2: 2.74e5
- Renilla control light, replicate 1: 4.09e6
- Renilla control light, replicate 2: 4.02e6

C1GalTA [DRSC03246]
- firefly reporter light, replicate 1: 1.28e6
- firefly reporter light, replicate 2: 8.86e5
- Renilla control light, replicate 1: 2.88e6
- Renilla control light, replicate 2: 1.94e6

fz [DRSC11348]
- firefly reporter light, replicate 1: 2.58e5
- firefly reporter light, replicate 2: 1.51e5
- Renilla control light, replicate 1: 3.11e6
- Renilla control light, replicate 2: 1.59e6

fz [DRSC39155]
- firefly reporter light, replicate 1: 8.18e5
- firefly reporter light, replicate 2: 6.95e5
- Renilla control light, replicate 1: 1.96e6
- Renilla control light, replicate 2: 1.29e6

Gpo3 [DRSC01978]
- firefly reporter light, replicate 1: 1.27e5
- firefly reporter light, replicate 2: 1.60e5
- Renilla control light, replicate 1: 1.47e6
- Renilla control light, replicate 2: 1.56e6

ScsbetaG [DRSC11294]
- firefly reporter light, replicate 1: 1.58e5
- firefly reporter light, replicate 2: 1.93e5
- Renilla control light, replicate 1: 2.23e6
- Renilla control light, replicate 2: 2.23e6

ScsbetaG [DRSC26044]
- firefly reporter light, replicate 1: 3.51e5
- firefly reporter light, replicate 2: 3.06e5
- Renilla control light, replicate 1: 7.60e5
- Renilla control light, replicate 2: 7.07e5

Mondo [DRSC02668]
- firefly reporter light, replicate 1: 1.99e5
- firefly reporter light, replicate 2: 1.84e5
- Renilla control light, replicate 1: 2.17e6
- Renilla control light, replicate 2: 1.85e6

Mondo [DRSC22006]
- firefly reporter light, replicate 1: 1.78e5 (active)
- firefly reporter light, replicate 2: 1.40e5
- Renilla control light, replicate 1: 8.24e5
- Renilla control light, replicate 2: 6.61e5

Mondo [DRSC26287]
- firefly reporter light, replicate 1: 3.30e5
- firefly reporter light, replicate 2: 3.07e5
- Renilla control light, replicate 1: 4.49e5
- Renilla control light, replicate 2: 4.04e5

Picot [DRSC07508]
- firefly reporter light, replicate 1: 9.55e5
- firefly reporter light, replicate 2: 1.99e5
- Renilla control light, replicate 1: 1.05e6
- Renilla control light, replicate 2: 3.83e5

Picot [DRSC24256]
- firefly reporter light, replicate 1: 4.65e5
- firefly reporter light, replicate 2: 3.53e5
- Renilla control light, replicate 1: 4.37e5
- Renilla control light, replicate 2: 4.80e5

Mettl2 [DRSC08398]
- firefly reporter light, replicate 1: 1.55e6
- firefly reporter light, replicate 2: 6.06e5
- Renilla control light, replicate 1: 2.00e6
- Renilla control light, replicate 2: 1.16e6

Mettl2 [DRSC29727]
- firefly reporter light, replicate 1: 4.93e5
- firefly reporter light, replicate 2: 4.09e5
- Renilla control light, replicate 1: 1.43e6
- Renilla control light, replicate 2: 1.21e6

CG43132 (retired record) [DRSC19484]
- firefly reporter light, replicate 1: 5.70e5
- firefly reporter light, replicate 2: 5.35e5
- Renilla control light, replicate 1: 4.07e6
- Renilla control light, replicate 2: 4.41e6

CG10561 [DRSC02068]
- firefly reporter light, replicate 1: 9.71e5
- firefly reporter light, replicate 2: 8.30e5
- Renilla control light, replicate 1: 2.31e6
- Renilla control light, replicate 2: 1.91e6

TH1 [DRSC20289]
- firefly reporter light, replicate 1: 77131
- firefly reporter light, replicate 2: 94961
- Renilla control light, replicate 1: 5.45e5
- Renilla control light, replicate 2: 6.13e5
